Cell number change and AC50 data for 18 molecules are collected here from PubChem BioAssay AID2685 (National Center for Advancing Translational Sciences (NCATS), 2010).

A short description of the assay: qHTS Assay for Lipid Storage Modulators in Drosophila S3 Cells.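 As to Cell number change: cells counted by Cell Tracker Red CMTPX staining in the red channel.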 To be noted: BODIPY lipid droplet fluorescence, 18-24 h; for cell number change: measured here: cell count max response, cells fed with added oleic acid. In a few lines:
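Laser-scanning cytometry quantifies lipid droplet accumulation (500–530 nm total intensity; droplet/cell object ratio) in oleic acid-fed (400 uM added) Drosophila S3 cells treated with a concentration series. 20 uM Triacsin C defined 100% inhibition.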

The mark [1] stands for this setting: measured here: lipid fluorescence (Fed channel) AC50, cells fed with added oleic acid.
Setting [2] is: measured here: cell number channel AC50, cells fed with added oleic acid.

The list shows a part of the results. The main result of the screen is listed elsewhere. These columns were measured beside it and carry no call. Most of these compounds were active or inconclusive in the main read-out, so they are no random draw. Words in brackets tell the shape of the fitted curve; partial curves, single points and poor fits give uncertain potencies.

Turning to `CCCn1cnc2scc(-c3ccc(C)c(C)c3)c2c1=O`, the cell number change was -21.7%. Further, the AC50 under setting [1] is 6.51 µM [rising, partial curve].

As for `CCc1n(CC(O)COCc2ccccc2)c2ccccc2[n+]1C` (stereo unspecified), the cell number change was -0.906%. In addition, the AC50 under setting [2] is 0.58 µM [falling, single point].

Regarding `Cc1cc(C(=O)NNC(=S)NCC(C)C)cs1`, the cell number change was 33.9%. In addition, the half-maximal activity concentration (AC50) under setting [2] is 1.46 µM [rising, full curve].

Turning to `Cc1cccc(NC(=O)c2ccccc2C(=O)O)c1`, the cell number change was determined as 47.2%. The AC50 under setting [2] was 13 µM [rising, partial curve].

As for `COc1ccc(-c2n[nH]c(C)c2-c2cnn(-c3ccccc3)c2)c(O)c1C`, the cell number change is -47.3%. The AC50 under setting [2] is 32.6 µM [falling, single point]. Also, the AC50 under setting [1] is 29.1 µM [falling, single point].

For `CSc1ccc(/C=N/Nc2nc(C)cc(=O)[nH]2)cc1`, the cell number change amounted to 3.5%.

Regarding `COc1ccccc1C(C)Nc1nc(-c2cccnc2)nc2ccccc12` (stereo unspecified), the cell number change was determined as 8.87%.

With `O=C(CSCc1ccc([N+](=O)[O-])cc1)NC1CCCCCC1`, the cell number change came to 26.4%. In addition, under setting [1], the AC50 was 7.31 µM [rising, partial curve, poor fit].

As for `CCCCn1c(SCC(N)=O)nc2c(sc3ccccc32)c1=O`, the AC50 under setting [2] was 3.66 µM [rising, single point].

Consider `Cc1ccc(S(=O)(=O)N2CCOCC2)cc1NC(=O)COc1cccc(-n2cnnn2)c1`, for which the cell number change worked out at 32.6%. Besides, the AC50 under setting [2] is 29.1 µM [rising, single point]. Further, the AC50 under setting [1] was 0.00517 µM [rising, full curve, poor fit].

In the case of `CC(C)(C)C(=O)NC(=S)NNC(=O)c1ccc(Cl)cc1Cl`, the cell number change was -27.3%.

With `O=C(CCS(=O)(=O)c1ccc(Br)s1)NCc1ccccc1`, the cell number change is 6.43%. In addition, the AC50 under setting [1] is 4.61 µM [falling, single point].

`O=C(Nc1ccccc1-c1nc2ccccc2s1)c1cccnc1`: the cell number change turned out to be 23.8%. Further, the AC50 under setting [2] is 0.0326 µM [rising, full curve, poor fit]. Besides, under setting [1], the AC50 is 0.0058 µM [rising, full curve, poor fit].

With `Cc1cc(C)cc(C(=O)NC(=S)Nc2cccnc2)c1`, the cell number change is -7.55%. Under setting [1], the AC50 is 6.51 µM [rising, single point].

Take `Cc1ccc(Nc2cc(C)nc(NCc3ccccc3)n2)cc1`: the cell number change was -34.4%. Also, the AC50 under setting [2] is 16.4 µM [falling, single point]. The AC50 under setting [1] was 16.4 µM [falling, single point].

For `COc1ccc2c(c1)nc(NCCCO)n2Cc1ccccc1`, the cell number change worked out at 15.6%. Besides, the concentration at half-maximal activity (AC50) under setting [1] is 5.17 µM [rising, full curve].

As to `CCCNc1nc(C)cc(-c2cc(C(=O)NC3CCCC3)on2)n1`, the cell number change was -1.38%. Besides, under setting [1], the concentration at half-maximal activity (AC50) was 6.51 µM [rising, single point].

With `CCCOc1ccc(/C=C2/C(=O)ON=C2C)cc1Cl`, the cell number change was -5.67%. Besides, under setting [1], the AC50 is 6.51 µM [rising, single point].

The term AC50 denotes the concentration giving half of the maximal activity seen. Read a low AC50 as activity at low concentration.
